Measured values: doi:10.1101/2024.07.05.602318 (bioRxiv, 2024)
No constants are given. Whether binding was seen depends on the method and setting. Some results given as binding are weak or reduced against the parent protein; the word gives no strength.

Amino acid sequences for entries named in this document (tags omitted). A change or cut given only in a name is not applied to a line headed by its entry.
UniProt Q16740: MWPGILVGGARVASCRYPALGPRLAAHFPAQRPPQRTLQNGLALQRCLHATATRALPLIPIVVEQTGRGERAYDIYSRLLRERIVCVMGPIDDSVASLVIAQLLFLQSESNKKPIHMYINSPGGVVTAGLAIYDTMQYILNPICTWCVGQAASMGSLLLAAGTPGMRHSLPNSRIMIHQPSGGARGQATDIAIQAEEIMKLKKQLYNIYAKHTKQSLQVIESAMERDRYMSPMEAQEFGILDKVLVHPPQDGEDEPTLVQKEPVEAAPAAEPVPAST
UniProt O76031: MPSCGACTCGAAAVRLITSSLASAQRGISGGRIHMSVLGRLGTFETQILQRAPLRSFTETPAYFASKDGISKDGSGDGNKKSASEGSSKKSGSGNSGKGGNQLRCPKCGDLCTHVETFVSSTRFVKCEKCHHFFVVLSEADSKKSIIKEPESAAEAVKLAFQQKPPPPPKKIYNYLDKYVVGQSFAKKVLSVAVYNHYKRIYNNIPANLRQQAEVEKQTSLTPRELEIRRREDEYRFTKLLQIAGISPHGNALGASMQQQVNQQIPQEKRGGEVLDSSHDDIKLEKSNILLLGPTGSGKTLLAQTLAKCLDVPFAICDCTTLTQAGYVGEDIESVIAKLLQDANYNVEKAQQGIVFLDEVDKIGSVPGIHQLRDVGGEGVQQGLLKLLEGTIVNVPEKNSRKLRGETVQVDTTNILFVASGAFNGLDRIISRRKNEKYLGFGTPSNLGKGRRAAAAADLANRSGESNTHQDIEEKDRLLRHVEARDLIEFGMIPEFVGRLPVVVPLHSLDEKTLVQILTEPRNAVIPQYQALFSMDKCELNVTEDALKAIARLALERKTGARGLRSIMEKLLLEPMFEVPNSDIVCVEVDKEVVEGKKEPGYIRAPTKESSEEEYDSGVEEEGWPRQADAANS

Molecular target: ATPγS-locked CLPXP (CLPX-3xFLAG hexamer with CLPP 14-mer) (human | human (by the printed accession Q16740)) (UniProt O76031+Q16740)
Experiment: co-IP

B1: ALAS2 (ALA synthase, erythroid isozyme), residues 54-587 (enzyme, UniProt P22557 54-587)
chain: KATKAGGDSPSWAKGHCPFMLSELQDGKSKIVQKAAPEVQEDVKAFKTDLPSSLVSVSLRKPFSGPQEQEQISGKVTHLIQNNMPGNYVFSYDQFFRDKIMEKKQDHTYRVFKTVNRWADAYPFAQHFSEASVASKDVSVWCSNDYLGMSRHPQVLQATQETLQRHGAGAGGTRNISGTSKFHVELEQELAELHQKDSALLFSSCFVANDSTLFTLAKILPGCEIYSDAGNHASMIQGIRNSGAAKFVFRHNDPDHLKKLLEKSNPKIPKIVAFETVHSMDGAICPLEELCDVSHQYGALTFVDEVHAVGLYGSRGAGIGERDGIMHKIDIISGTLGKAFGCVGGYIASTRDLVDMVRSYAAGFIFTTSLPPMVLSGALESVRLLKGEEGQALRRAHQRNVKHMRQLLMDRGLPVIPCPSHIIPIRVGNAALNSKLCDLLLSKHGIYVQAINYPTVPRGEELLRLAPSPHHSPQMMEDFVEKLLLAWTAVGLPLQDVSVAACNFCRRPVHFELMSEWERSYFGNMGPQYVTTYA
B1 was tested, and the binding was “binds weakly”.
